# Measurements reported in PubChem BioAssay AID1508597 (Cure First, 2020).
# Assay: 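Survival screen with siRNA in ovarian cancer cells derived from patients, with or without rucaparib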 (primary screen)
# Cell system: human ovarian carcinoma lines grown from tumours: OCI-P5x (papillary serous) and OCI-C5x (clear cell)
# Knock-down reagent: siRNA pool against human genes, 1.25 pmol siRNA per well
# Timing: 72 h or 96 h, depending on the cell culture
# Challenge: rucaparib 20 µM (about IC30) or vehicle, present until read-out
# Rucaparib or vehicle: Rucaparib
# Cell line: OCI-P5x (serous)
# Measured: 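Luminescent ATP-based viability assay read 72 or 96 h after transfection, depending on culture, given as normalised percent viability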
# Reading the numbers: viability, normalised: higher = more viable cells remaining
# Rule for the call: 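a well counts as a hit if its normalised viability is under 80 percent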
# Meaning of the calls: active = viability under 80%; inactive = viability 80% or more
# This is an unselected part of the about 2,100 reagents, in one setting of the screen. 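Calls flag viability under 80% in either arm, not effects specific to rucaparib; the reference for percent is not stated.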 A reagent listed more than once was tested more than once; the source does not tell the runs apart. Not stated in the record: the 100% reference.
The first 6 records as a preview:
Gene,technical replicate,"viability, normalised (%)",activity call
USP1,1,48.7,active
USP1,2,58.4,active
USP1,3,41.5,active
TRIM24,1,73,active
TRIM24,1,119,inactive
TRIM24,2,74.6,active

The list itself, from the first entry:
Gene,technical replicate,"viability, normalised (%)",activity call
USP1,1,48.7,active
USP1,2,58.4,active
USP1,3,41.5,active
TRIM24,1,73,active
TRIM24,1,119,inactive
TRIM24,2,74.6,active
TRIM24,2,106,inactive
TRIM24,3,68.7,active
TRIM24,3,82.5,inactive
WDR45B,1,80.7,inactive
WDR45B,2,81.9,inactive
WDR45B,3,73.9,active
POLB,1,48.3,active
POLB,2,49.3,active
POLB,3,61.6,active
LRWD1,1,54.7,active
LRWD1,2,52.5,active
LRWD1,3,55.4,active
EZH2,1,79.1,active
EZH2,2,68.1,active
EZH2,3,68.7,active
MPP3,1,47.5,active
MPP3,2,60.6,active
MPP3,3,74.2,active
ITPK1,1,62.7,active
ITPK1,2,69.6,active
ITPK1,3,70.1,active
NECAB3,1,107,inactive
NECAB3,2,104,inactive
NECAB3,3,104,inactive
NEK4,1,80.6,inactive
NEK4,2,46.6,active
NEK4,3,64.2,active
ATF7IP,1,78.6,active
ATF7IP,2,74.7,active
ATF7IP,3,77.7,active
WNT4,1,50,active
WNT4,2,41,active
WNT4,3,42.4,active
DQX1,1,55.7,active
DQX1,2,59,active
DQX1,3,54.8,active
RIPK1,1,64.2,active
RIPK1,2,55.7,active
RIPK1,3,78.3,active
SPHK2,1,109,inactive
SPHK2,2,107,inactive
SPHK2,3,89.9,inactive
MAST1,1,104,inactive
MAST1,2,99.1,inactive
MAST1,3,88.2,inactive
MYO3B,1,70.1,active
MYO3B,1,70.5,active
MYO3B,2,59.2,active
MYO3B,2,89,inactive
MYO3B,3,102,inactive
MYO3B,3,90.8,inactive
SOX2,1,51.9,active
SOX2,1,56.1,active
SOX2,2,59,active
SOX2,2,32.2,active
SOX2,3,58,active
SOX2,3,53.7,active
TYRO3,1,86.4,inactive
TYRO3,2,87.4,inactive
TYRO3,3,103,inactive
DNMT3B,1,62.2,active
DNMT3B,2,53,active
DNMT3B,3,59.2,active
DLG2,1,75.7,active
DLG2,2,92.5,inactive
DLG2,3,101,inactive
MED9,1,71.8,active
MED9,2,57.9,active
MED9,3,72.5,active
